Data as given in PubChem BioAssay AID1259331 (Drosophila RNAi Screening Center, 2017).

Screen: 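Fly transmembrane-protein genes that affect zinc toxicity in cultured cells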 (primary screen)
Cell system: Drosophila S2R+ cells
Reagent: long dsRNA against Drosophila genes
Time to read-out: 5 days (4 days knock-down, then 1 day zinc)
Challenge: zinc chloride at 15 mM final level for 1 day
Measured: 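Total cellular ATP measured by luciferase luminescence as a viability proxy, turned into Z scores from three plate copies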
Direction: mean Z score: higher = more ATP than other wells, better survival under zinc; ATP luminescence: higher = more ATP, more viable cells
Hit rule: 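a reagent is called a hit when its Z score is above 1.5 or below -1.5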
Calls: active = hit, ATP up or down; inactive = not a hit
In all, the deposit lists about 3,100 reagents; this is a random part of them. 126 of them (4.1%) count as active. 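Calls are per reagent; zinc was so toxic that few knock-downs lowered ATP further, so most hits raise ATP.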 Raw values vary from plate to plate and are shown uncorrected. Entries without a mark were called inactive. Reagents against one gene are numbered here. Not given: the amount of reagent.

The first 3 entries, to show the layout:
| gene knocked down | dsRNA no. | mean Z score | ATP luminescence, replicate 1 | ATP luminescence, replicate 2 |
| --- | --- | --- | --- | --- |
| CG13743 | 1 | -0.546 | 42262 | 40262 |
| ppk23 | 1 | 0.268 | 50086 | 45491 |
| ppk23 | 2 | 0.0389 | 58437 | 59287 |

Results, from the start:
| gene knocked down | dsRNA no. | mean Z score | ATP luminescence, replicate 1 | ATP luminescence, replicate 2 |
| --- | --- | --- | --- | --- |
| CG13743 | 1 | -0.546 | 42262 | 40262 |
| ppk23 | 1 | 0.268 | 50086 | 45491 |
| ppk23 | 2 | 0.0389 | 58437 | 59287 |
| nrv2 | 1 | -0.191 | 40913 | 40913 |
| nrv2 | 2 | 0.252 | 52144 | 67903 |
| Corin | 1 | -0.481 | 53464 | 54510 |
| Corin | 2 | 0.243 | 63187 | 61215 |
| fzo | 1 | -0.484 | 35925 | 50721 |
| fzo | 2 | 0.0353 | 57139 | 64233 |
| CG30339 | 1 | 0.0809 | 43638 | 46074 |
| Sur-8 | 1 | 0.69 | 42371 | 71042 |
| CG42288 | 1 | -0.558 | 60632 | 62621 |
| Abca3 | 1 | -0.287 | 37673 | 41291 |
| Ir75c | 1 | -0.115 | 44565 | 38376 |
| Ac78C | 1 | -0.162 | 71934 | 59466 |
| Ac78C | 2 | -0.515 | 39113 | 43262 |
| CG32054 | 1 | -0.165 | 75398 | 56413 |
| CG32054 | 2 | -0.0338 | 61867 | 59860 |
| CG11898 | 1 | -0.632 | 43249 | 50721 |
| CG11898 | 2 | 0.109 | 56259 | 51201 |
| CG12446 | 1 | -0.114 | 41668 | 40673 |
| CG31221 | 1 | -0.0996 | 35855 | 57202 |
| CG31221 | 2 | -0.49 | 46955 | 60838 |
| Or98a | 1 | 0.268 | 70064 | 70922 |
| Or98a | 2 | 0.188 | 56343 | 58111 |
| Gr66a | 1 | -0.0448 | 76324 | 60586 |
| Gr66a | 2 | -0.159 | 56962 | 55042 |
| Gle1 | 1 | 0.135 | 30383 | 34159 |
| Gle1 | 2 | 0.772 | 59157 | 57185 |
